These results are taken from the supplement of paper PMC8728848.

Common to all, as to test: glycan array binding signal (z-score within array); higher = stronger binding
What all share (conditions): glycan notation: IUPAC condensed, linker removed

Experiment [1] addresses Fuc(a1-2)Gal. The essentials: (§1)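 Negative Z-scores can be read as non-binding. The Z-score is calculated within each array and then averaged across arrays of one protein sequence at different concentrations or buffers and across linkers. Arrays, 3228 in all, were curated from the Consortium for Functional Glycomics database and kept only where the protein sequence was available.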

The target of experiment [2] is Fuc(a1-2)Gal(b1-3)GalNAc. In outline:
as §1

Experiment [3] addresses Fuc(a1-2)Gal(b1-3)GalNAc(a1-3)[Fuc(a1-2)]Gal(b1-4)Glc. In outline: as §1
Experiment [4] concerns the target Fuc(a1-2)Gal(b1-3)GalNAc(a1-3)[Fuc(a1-2)]Gal(b1-4)GlcNAc. In outline:
as §1

The target in experiment [5] is Fuc(a1-2)Gal(b1-3)GalNAc(b1-3)Gal. In outline: as §1
Experiment [6] concerns the target Fuc(a1-2)Gal(b1-3)GalNAc(b1-3)Gal(a1-4)Gal(b1-4)Glc. In outline:
as §1

The target in experiment [7] is Fuc(a1-2)Gal(b1-3)GalNAc(b1-4)[Neu5Ac(a2-3)]Gal(b1-4)Glc. In outline:
as §1

In experiment [8] the target is Fuc(a1-2)Gal(b1-3)GlcNAc. The essentials:
as §1

Experiment [9] has as its target Fuc(a1-2)Gal(b1-3)GlcNAc(b1-2)Man(a1-3)[Fuc(a1-2)Gal(b1-3)GlcNAc(b1-2)Man(a1-6)]Man(b1-4)GlcNAc(b1-4)GlcNAc. In outline:
as §1

Experiment [10] has as its target Fuc(a1-2)Gal(b1-3)GlcNAc(b1-2)Man(a1-3)[Fuc(a1-2)Gal(b1-3)GlcNAc(b1-2)Man(a1-6)]Man(b1-4)GlcNAc(b1-4)[Fuc(a1-6)]GlcNAc. In outline:
as §1

Experiment [11] deals with Fuc(a1-2)Gal(b1-3)GlcNAc(b1-3)Gal(b1-4)Glc. In outline:
as §1

The target in experiment [12] is Fuc(a1-2)Gal(b1-3)GlcNAc(b1-3)GalNAc. In outline:
as §1

Experiment [13] concerns the target Fuc(a1-2)Gal(b1-3)GlcNAc(b1-3)[Fuc(a1-2)Gal(b1-3)GlcNAc(b1-6)]GalNAc. The essentials: as §1
The target of experiment [14] is Fuc(a1-2)Gal(b1-3)GlcNAc(b1-3)[Gal(b1-4)GlcNAc(b1-6)]Gal(b1-4)Glc. In outline: as §1
Experiment [15] deals with Fuc(a1-2)Gal(b1-3)GlcNAc(b1-3)[Neu5Ac(a2-6)Gal(b1-4)GlcNAc(b1-6)]Gal(b1-4)Glc. The essentials: as §1
The target in experiment [16] is Fuc(a1-2)Gal(b1-3)GlcNAc6S. The essentials: as §1
Experiment [17] concerns the target Fuc(a1-2)Gal(b1-3)[Fuc(a1-4)]GlcNAc. In outline:
as §1

Experiment [18] deals with Fuc(a1-2)Gal(b1-3)[Fuc(a1-4)]GlcNAc(b1-2)Man(a1-3)[Fuc(a1-2)Gal(b1-3)[Fuc(a1-4)]GlcNAc(b1-2)Man(a1-3)]Man(b1-4)GlcNAc(b1-4)GlcNAc. The essentials:
as §1

Experiment [19] has as its target Fuc(a1-2)Gal(b1-3)[Fuc(a1-4)]GlcNAc(b1-2)Man(a1-3)[Fuc(a1-2)Gal(b1-3)[Fuc(a1-4)]GlcNAc(b1-2)Man(a1-6)]Man(b1-4)GlcNAc(b1-4)[Fuc(a1-6)]GlcNAc(b1-4)[Fuc(a1-6)]GlcNAc. The essentials:
as §1

Experiment [20] concerns the target Fuc(a1-2)Gal(b1-3)[Fuc(a1-4)]GlcNAc(b1-3)[Fuc(a1-3)[Gal(b1-4)]GlcNAc(b1-6)]Gal(b1-4)Glc. In outline:
as §1

The target of experiment [21] is Fuc(a1-2)Gal(b1-3)[Fuc(a1-4)]GlcNAc(b1-3)[Gal(b1-4)GlcNAc(b1-6)]Gal(b1-4)Glc. The essentials: as §1
For experiment [22], the target named is Fuc(a1-2)Gal(b1-4)Glc. In outline:
as §1

The other results are listed elsewhere or left out.

B1: pilr alpha (protein)
chain: MLYGVTQPKHLSASMGGSVEIPFSFYYPWELATAPDVRISWRRGHFHRQSFYSTRPPSIHKDYVNRLFLNWTEGQKSGFLRISNLQKQDQSVYFCRVELDTRSSGRQQWQSIEGTKLSIT
For the molecule B1, the “glycan array binding signal (z-score)” value in experiment [1] was 1.36; in experiment [2] it was 0.863; in [3], 0.108; in experiment [4] it was -0.058; in experiment [5], -0.516; in [6], -0.181. Further, the “glycan array binding signal (z-score)” value in experiment [7] is -0.073; in experiment [8], -0.41; in experiment [9], -0.321; in experiment [10], 0.342; in experiment [11], -0.19; in [12], -0.88. Moreover, the “glycan array binding signal (z-score)” value is 0.217 in [13]; -0.252 in [14]; 1.27 in [15]; -0.223 in [16]; 0.099 in experiment [17]; -0.496 in experiment [18]. Also, the “glycan array binding signal (z-score)” value was -0.535 in [19], -0.333 in experiment [20], -0.394 in experiment [21] and -0.156 in experiment [22].
